Results are given in words; binding and its absence hold for the method and conditions named. Some entries that bind do so weakly or less than the wild type. Sequences can lack the tags named with a protein.
T1: CROWDED NUCLEI 3 (CRWN3), yeast two-hybrid fusion (Arabidopsis thaliana) (UniProt Q9CA42)
T1 sequence: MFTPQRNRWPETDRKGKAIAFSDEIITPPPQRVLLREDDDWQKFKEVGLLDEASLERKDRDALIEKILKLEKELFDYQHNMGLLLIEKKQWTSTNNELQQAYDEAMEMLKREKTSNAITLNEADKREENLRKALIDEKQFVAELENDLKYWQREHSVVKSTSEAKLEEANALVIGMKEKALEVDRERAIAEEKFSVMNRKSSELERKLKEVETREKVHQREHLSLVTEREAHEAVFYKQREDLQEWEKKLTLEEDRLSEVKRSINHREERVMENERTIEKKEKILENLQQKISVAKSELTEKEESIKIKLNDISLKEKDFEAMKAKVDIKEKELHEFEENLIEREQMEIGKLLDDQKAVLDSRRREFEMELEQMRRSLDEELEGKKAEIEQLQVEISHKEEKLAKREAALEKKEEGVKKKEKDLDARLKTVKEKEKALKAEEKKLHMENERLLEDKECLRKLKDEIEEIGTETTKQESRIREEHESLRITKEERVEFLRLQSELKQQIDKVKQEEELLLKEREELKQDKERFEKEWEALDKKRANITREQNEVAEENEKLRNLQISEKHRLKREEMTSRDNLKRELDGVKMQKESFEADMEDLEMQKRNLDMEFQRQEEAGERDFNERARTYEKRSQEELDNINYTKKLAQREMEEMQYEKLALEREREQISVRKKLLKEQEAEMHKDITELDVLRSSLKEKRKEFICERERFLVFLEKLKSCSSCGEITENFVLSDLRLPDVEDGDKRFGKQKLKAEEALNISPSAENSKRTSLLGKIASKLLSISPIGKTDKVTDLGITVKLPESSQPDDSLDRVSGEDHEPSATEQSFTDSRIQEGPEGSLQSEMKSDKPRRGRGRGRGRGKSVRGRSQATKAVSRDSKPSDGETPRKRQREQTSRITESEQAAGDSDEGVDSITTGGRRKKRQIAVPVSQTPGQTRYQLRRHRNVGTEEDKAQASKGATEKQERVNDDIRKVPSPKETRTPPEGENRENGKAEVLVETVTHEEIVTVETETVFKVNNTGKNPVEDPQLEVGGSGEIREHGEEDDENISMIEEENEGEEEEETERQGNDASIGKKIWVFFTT

T2: CROWDED NUCLEI 2 (CRWN2), yeast two-hybrid fusion (Arabidopsis thaliana) (UniProt Q9SAF6)
T2 sequence: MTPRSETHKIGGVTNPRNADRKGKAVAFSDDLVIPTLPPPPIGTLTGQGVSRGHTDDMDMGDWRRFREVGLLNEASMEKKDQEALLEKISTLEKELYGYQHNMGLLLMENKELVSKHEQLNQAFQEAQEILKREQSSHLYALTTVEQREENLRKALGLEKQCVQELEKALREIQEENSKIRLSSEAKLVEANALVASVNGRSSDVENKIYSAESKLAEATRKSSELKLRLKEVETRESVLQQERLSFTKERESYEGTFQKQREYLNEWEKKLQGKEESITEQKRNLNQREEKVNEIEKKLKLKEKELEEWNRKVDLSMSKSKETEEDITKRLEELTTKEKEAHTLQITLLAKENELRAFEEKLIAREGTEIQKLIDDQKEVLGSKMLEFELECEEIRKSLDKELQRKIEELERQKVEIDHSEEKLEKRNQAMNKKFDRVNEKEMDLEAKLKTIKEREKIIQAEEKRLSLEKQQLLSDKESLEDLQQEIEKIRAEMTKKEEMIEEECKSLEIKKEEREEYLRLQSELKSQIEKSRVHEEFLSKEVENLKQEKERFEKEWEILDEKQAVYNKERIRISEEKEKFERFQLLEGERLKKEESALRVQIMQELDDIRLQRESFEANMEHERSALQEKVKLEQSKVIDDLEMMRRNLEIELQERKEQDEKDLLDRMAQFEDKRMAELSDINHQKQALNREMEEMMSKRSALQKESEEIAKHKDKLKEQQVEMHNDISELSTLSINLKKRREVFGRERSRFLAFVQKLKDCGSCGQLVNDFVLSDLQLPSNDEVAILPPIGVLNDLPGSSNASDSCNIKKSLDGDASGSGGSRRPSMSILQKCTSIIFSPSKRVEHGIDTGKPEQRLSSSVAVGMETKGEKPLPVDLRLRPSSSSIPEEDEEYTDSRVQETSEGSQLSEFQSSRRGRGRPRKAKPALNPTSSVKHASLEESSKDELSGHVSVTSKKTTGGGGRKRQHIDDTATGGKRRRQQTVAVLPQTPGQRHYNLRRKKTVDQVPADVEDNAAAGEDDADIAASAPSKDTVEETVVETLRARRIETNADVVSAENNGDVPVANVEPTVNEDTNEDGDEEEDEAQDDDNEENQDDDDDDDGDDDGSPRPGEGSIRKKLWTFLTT

T3: KAKU4 N-terminus (1-310), yeast two-hybrid fusion (Arabidopsis thaliana) (UniProt Q949W6)
T3 sequence: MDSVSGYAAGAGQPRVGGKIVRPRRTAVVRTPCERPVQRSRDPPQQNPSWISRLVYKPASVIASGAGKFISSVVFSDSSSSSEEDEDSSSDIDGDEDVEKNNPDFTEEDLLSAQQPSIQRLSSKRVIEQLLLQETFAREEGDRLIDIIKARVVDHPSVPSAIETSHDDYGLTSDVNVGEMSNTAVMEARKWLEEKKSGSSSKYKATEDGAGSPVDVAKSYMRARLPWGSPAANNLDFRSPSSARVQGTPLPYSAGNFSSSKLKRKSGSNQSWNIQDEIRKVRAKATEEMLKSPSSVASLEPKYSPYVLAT


Tests used:
Assay in all cases: two-hybrid
[1] = biological target: T1, CROWDED NUCLEI 3 (CRWN3), yeast two-hybrid fusion (Arabidopsis thaliana)
[2] = biological target: T2, CROWDED NUCLEI 2 (CRWN2), yeast two-hybrid fusion (Arabidopsis thaliana)
[3] = biological target: T3, KAKU4 N-terminus (1-310), yeast two-hybrid fusion (Arabidopsis thaliana)

binding [1]	binding [2]	binding [3]	Binder
no binding	no binding		KAKU4 C-terminus (311-574), yeast two-hybrid fusion (domain or fragment, UniProt Q949W6-2 311-574) DMLKGNASSLNADGAVRNEQSRALPNSAIPTSEHNQTTEANQAVKETGVLHTRSRGVGLEETFISTQGVKPSEDTNTAPQSGTAVDDFNDQDGDFIQPTSTIGNTTNAVLALGATLDPTGNSCIPKDVFETSKEADEIGASRHTSNGFPSSSPSSPAVMEGQPKPTPPEETKASQPIAEIHGDDMTVGNGSDGAINNESNDSHSSASNSSSTHEEEWLPGDQSLPNSNSASSSPGNTKVLAYSRRGRGRGRGRGRGGRGKGRAK
binds	binds		KAKU4 full-length protein (amino-acids 1-574), yeast two-hybrid fusion (protein, UniProt Q949W6-2 1-574) MDSVSGYAAGAGQPRVGGKIVRPRRTAVVRTPCERPVQRSRDPPQQNPSWISRLVYKPASVIASGAGKFISSVVFSDSSSSSEEDEDSSSDIDGDEDVEKNNPDFTEEDLLSAQQPSIQRLSSKRVIEQLLLQETFAREEGDRLIDIIKARVVDHPSVPSAIETSHDDYGLTSDVNVGEMSNTAVMEARKWLEEKKSGSSSKYKATEDGAGSPVDVAKSYMRARLPWGSPAANNLDFRSPSSARVQGTPLPYSAGNFSSSKLKRKSGSNQSWNIQDEIRKVRAKATEEMLKSPSSVASLEPKYSPYVLATDMLKGNASSLNADGAVRNEQSRALPNSAIPTSEHNQTTEANQAVKETGVLHTRSRGVGLEETFISTQGVKPSEDTNTAPQSGTAVDDFNDQDGDFIQPTSTIGNTTNAVLALGATLDPTGNSCIPKDVFETSKEADEIGASRHTSNGFPSSSPSSPAVMEGQPKPTPPEETKASQPIAEIHGDDMTVGNGSDGAINNESNDSHSSASNSSSTHEEEWLPGDQSLPNSNSASSSPGNTKVLAYSRRGRGRGRGRGRGGRGKGRAK
binds	binds	binds	KAKU4 N-terminus (1-310), yeast two-hybrid fusion (domain or fragment, UniProt Q949W6-2 1-310) MDSVSGYAAGAGQPRVGGKIVRPRRTAVVRTPCERPVQRSRDPPQQNPSWISRLVYKPASVIASGAGKFISSVVFSDSSSSSEEDEDSSSDIDGDEDVEKNNPDFTEEDLLSAQQPSIQRLSSKRVIEQLLLQETFAREEGDRLIDIIKARVVDHPSVPSAIETSHDDYGLTSDVNVGEMSNTAVMEARKWLEEKKSGSSSKYKATEDGAGSPVDVAKSYMRARLPWGSPAANNLDFRSPSSARVQGTPLPYSAGNFSSSKLKRKSGSNQSWNIQDEIRKVRAKATEEMLKSPSSVASLEPKYSPYVLAT
